Measurements reported in US20150231240A1, “ANTI-C16ORF54 ANTIBODIES AND METHODS OF USE THEREOF” (priority 2012, published 2015).

Test system: C16orf54
Experiment: Surface tagged antigen profiling (sTAg) with LC-MS/MS of primary tumor and normal samples
Design: species or system human
[1] = CRC, NAT (normal adjacent tissue)
[2] = Lung, NAT (normal adjacent tissue)
[3] = Ovary, NAT (normal adjacent tissue)
[4] = Pancreas, NAT (normal adjacent tissue)

B1: C16orf54 (protein)
chain: MPLTPEPPSGRVEGPPAWEAAPWPSLPCGPCIPIMLVLATLAALFILTTAVLAERLFRRALRPDPSHRAPTLVWRPGGELWIEPMGTARERSEDWYGSAVPLLTDRAPEPPTQVGTLEARATAPPAPSAPNSAPSNLGPQTVLEVPARSTFWGPQPWEGRPPATGLVSWAEPEQRPEASVQFGSPQARRQRPGSPDPEWGLQPRVTLEQISAFWKREGRTSVGF
Expression by sTAg (Median % NSAF) (AML, BMMC): 0.000 % NSAF
Prevalence (AML, BMMC): 0/16
Expression by sTAg (Median % NSAF) (AML, Tumor): 0.084 % NSAF
Prevalence (AML, Tumor): 4/14
Expression by sTAg (Median % NSAF) (CLL, PBMC): 0.022 % NSAF
Prevalence (CLL, PBMC): 0/15
Expression by sTAg (Median % NSAF) (CLL, Tumor): 0.272 % NSAF
Prevalence (CLL, Tumor): 36/40
Expression by sTAg (Median % NSAF) [1]: 0.000 % NSAF
Prevalence [1]: 0/22
Expression by sTAg (Median % NSAF) (CRC, Tumor): 0.000 % NSAF
Prevalence (CRC, Tumor): 0/27
Expression by sTAg (Median % NSAF) [2]: 0.000 % NSAF
Prevalence [2]: 0/75
Expression by sTAg (Median % NSAF) (Lung, Tumor): 0.000 % NSAF
Prevalence (Lung, Tumor): 0/89
Expression by sTAg (Median % NSAF) (MM, BMMC): 0.000 % NSAF
Prevalence (MM, BMMC): 0/16
Expression by sTAg (Median % NSAF) (MM, Tumor): 0.110 % NSAF
Prevalence (MM, Tumor): 1/30
Expression by sTAg (Median % NSAF) [3]: 0.000 % NSAF
Prevalence [3]: 0/10
Expression by sTAg (Median % NSAF) (Ovary, Tumor): 0.000 % NSAF
Prevalence (Ovary, Tumor): 0/53
Expression by sTAg (Median % NSAF) [4]: 0.000 % NSAF
Prevalence [4]: 0/21
Expression by sTAg (Median % NSAF) (Pancreas, Tumor): 0.000 % NSAF
Prevalence (Pancreas, Tumor): 0/41
Expression by sTAg (Median % NSAF) (Sarcoma, NAT (normal adjacent tissue)): 0.000 % NSAF
Expression by sTAg (Median % NSAF) (Sarcoma, Tumor): 0.000 % NSAF
Prevalence (Sarcoma, Tumor): 0/14
